{"source": "PubChem BioAssay AID1159584 (Peter MacCallum Cancer Centre, 2016)", "test": "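Genes whose loss is lethal only together with E-cadherin loss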 (primary screen)", "system": "human MCF10A breast epithelial cells, parental and CDH1-null", "reagents": "siRNA against human genes", "measured": "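ATP luminescence (CellTiter-Glo) viability per line relative to mean mock wells over all plates, and the ratio of CDH1-null to parental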", "direction": "CDH1-null / parental viability ratio: higher = CDH1-null cells survive relatively better than parental", "note": "Shown is an unselected part of about 18,000 reagents tested. Further read-outs or replicates are left out here. The record does not give: the amount of reagent, the time to read-out."}
{"Gene": "L3MBTL2 (L3MBTL histone methyl-lysine binding protein 2)", "CDH1-null / parental viability ratio": 0.99}
{"Gene": "ALDH1A3 (aldehyde dehydrogenase 1 family member A3)", "CDH1-null / parental viability ratio": 0.92}
{"Gene": "PGK1 (phosphoglycerate kinase 1)", "CDH1-null / parental viability ratio": 0.77}
{"Gene": "MAMDC4 (MAM domain containing 4)", "CDH1-null / parental viability ratio": 0.92}
{"Gene": "SNIP1 (Smad nuclear interacting protein 1)", "CDH1-null / parental viability ratio": 0.86}
{"Gene": "COX8C (cytochrome c oxidase subunit 8C)", "CDH1-null / parental viability ratio": 0.9}
{"Gene": "ZNF606 (zinc finger protein 606)", "CDH1-null / parental viability ratio": 0.94}
{"Gene": "USP17L2 (ubiquitin specific peptidase 17 like family member 2)", "CDH1-null / parental viability ratio": 1.19}
{"Gene": "NES (nestin)", "CDH1-null / parental viability ratio": 1.41}
{"Gene": "OR5L1 (olfactory receptor family 5 subfamily L member 1)", "CDH1-null / parental viability ratio": 1}
{"Gene": "ITGB1BP2 (integrin subunit beta 1 binding protein 2)", "CDH1-null / parental viability ratio": 0.96}
{"Gene": "MBD1 (methyl-CpG binding domain protein 1)", "CDH1-null / parental viability ratio": 0.92}
{"Gene": "IMPDH1 (inosine monophosphate dehydrogenase 1)", "CDH1-null / parental viability ratio": 0.96}
{"Gene": "RASSF9 (Ras association domain family member 9)", "CDH1-null / parental viability ratio": 0.72}
{"Gene": "CENPH (centromere protein H)", "CDH1-null / parental viability ratio": 0.75}
{"Gene": "CDC20 (cell division cycle 20)", "CDH1-null / parental viability ratio": 0.93}
{"Gene": "APOL6 (apolipoprotein L6)", "CDH1-null / parental viability ratio": 1.09}
{"Gene": "JAK1 (Janus kinase 1)", "CDH1-null / parental viability ratio": 0.98}
{"Gene": "ZFR (zinc finger RNA binding protein)", "CDH1-null / parental viability ratio": 1.09}
{"Gene": "MFRP (membrane frizzled-related protein)", "CDH1-null / parental viability ratio": 0.89}
{"Gene": "FAM114A2 (family with sequence similarity 114 member A2)", "CDH1-null / parental viability ratio": 0.84}
{"Gene": "MRPS35 (mitochondrial ribosomal protein S35)", "CDH1-null / parental viability ratio": 1.05}
{"Gene": "AP1S1 (adaptor related protein complex 1 subunit sigma 1)", "CDH1-null / parental viability ratio": 0.91}
{"Gene": "CD81 (CD81 molecule)", "CDH1-null / parental viability ratio": 1.12}
